Results taken from publication PMC10885370.
These are yes or no findings as the source states them, for the method shown. Binding seen in cells or lysates may run through a third protein. A yes stands for co-enrichment or nearness to the bait. Other partners may have been found.

Amino acid sequences for entries named in this document (tags omitted).
UniProt P54578: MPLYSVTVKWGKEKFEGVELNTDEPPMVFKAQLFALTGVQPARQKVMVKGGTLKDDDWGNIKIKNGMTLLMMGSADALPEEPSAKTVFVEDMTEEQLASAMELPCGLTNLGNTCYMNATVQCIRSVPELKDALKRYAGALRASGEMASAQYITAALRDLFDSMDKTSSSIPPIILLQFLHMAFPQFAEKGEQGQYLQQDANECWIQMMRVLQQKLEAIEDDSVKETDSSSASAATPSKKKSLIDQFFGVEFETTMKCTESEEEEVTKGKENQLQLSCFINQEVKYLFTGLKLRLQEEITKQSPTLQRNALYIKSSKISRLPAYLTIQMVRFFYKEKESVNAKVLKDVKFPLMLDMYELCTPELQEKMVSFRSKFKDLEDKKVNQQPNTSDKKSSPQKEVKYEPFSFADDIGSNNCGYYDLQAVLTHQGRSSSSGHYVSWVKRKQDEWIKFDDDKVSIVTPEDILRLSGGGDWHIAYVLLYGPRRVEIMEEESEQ

Target: HA-tagged ubiquitin-specific protease 14 (USP14), stably overexpressed in HN4 cells (human) (UniProt P54578)
Experiment: affinity purification with mass spectrometry; lysates of HN4 cells stably overexpressing HA-tagged USP14 immunoprecipitated with anti-HA, anti-mouse IgG as negative control; gel electrophoresis, silver staining, in-gel trypsin digestion, LC-MS/MS, MASCOT search

- binding: binds
B1: phosphofructokinase-1 liver type (PFKL), endogenous in HN4 cells (enzyme, UniProt P17858 1-780)
chain: MAAVDLEKLRASGAGKAIGVLTSGGDAQGMNAAVRAVTRMGIYVGAKVFLIYEGYEGLVEGGENIKQANWLSVSNIIQLGGTIIGSARCKAFTTREGRRAAAYNLVQHGITNLCVIGGDGSLTGANIFRSEWGSLLEELVAEGKISETTARTYSHLNIAGLVGSIDNDFCGTDMTIGTDSALHRIMEVIDAITTTAQSHQRTFVLEVMGRHCGYLALVSALASGADWLFIPEAPPEDGWENFMCERLGETRSRGSRLNIIIIAEGAIDRNGKPISSSYVKDLVVQRLGFDTRVTVLGHVQRGGTPSAFDRILSSKMGMEAVMALLEATPDTPACVVTLSGNQSVRLPLMECVQMTKEVQKAMDDKRFDEATQLRGGSFENNWNIYKLLAHQKPPKEKSNFSLAILNVGAPAAGMNAAVRSAVRTGISHGHTVYVVHDGFEGLAKGQVQEVGWHDVAGWLGRGGSMLGTKRTLPKGQLESIVENIRIYGIHALLVVGGFEAYEGVLQLVEARGRYEELCIVMCVIPATISNNVPGTDFSLGSDTAVNAAMESCDRIKQSASGTKRRVFIVETMGGYCGYLATVTGIAVGADAAYVFEDPFNIHDLKVNVEHMTEKMKTDIQRGLVLRNEKCHDYYTTEFLYNLYSSEGKGVFDCRTNVLGHLQQGGAPTPFDRNYGTKLGVKAMLWLSEKLREVYRKGRVFANAPDSACVIGLKKKAVAFSPVTELKKDTDFEHRMPREQWWLSLRLMLKMLAQYRISMAAYVSGELEHVTRRTLSMDKGF
